Where two headings read alike, the source gives them in different places. Results are given in words; binding and its absence hold for the method and conditions named. In cells and extracts the contact can be indirect. Some entries that bind do so weakly or less than the wild type. For some assays here: Tags and fused reporters may be left off the sequences shown.

Protein sequences, listed by entry. Tags and fused reporters are not part of them. Residues count along the entry.
UniProt P25054, residues 221-880: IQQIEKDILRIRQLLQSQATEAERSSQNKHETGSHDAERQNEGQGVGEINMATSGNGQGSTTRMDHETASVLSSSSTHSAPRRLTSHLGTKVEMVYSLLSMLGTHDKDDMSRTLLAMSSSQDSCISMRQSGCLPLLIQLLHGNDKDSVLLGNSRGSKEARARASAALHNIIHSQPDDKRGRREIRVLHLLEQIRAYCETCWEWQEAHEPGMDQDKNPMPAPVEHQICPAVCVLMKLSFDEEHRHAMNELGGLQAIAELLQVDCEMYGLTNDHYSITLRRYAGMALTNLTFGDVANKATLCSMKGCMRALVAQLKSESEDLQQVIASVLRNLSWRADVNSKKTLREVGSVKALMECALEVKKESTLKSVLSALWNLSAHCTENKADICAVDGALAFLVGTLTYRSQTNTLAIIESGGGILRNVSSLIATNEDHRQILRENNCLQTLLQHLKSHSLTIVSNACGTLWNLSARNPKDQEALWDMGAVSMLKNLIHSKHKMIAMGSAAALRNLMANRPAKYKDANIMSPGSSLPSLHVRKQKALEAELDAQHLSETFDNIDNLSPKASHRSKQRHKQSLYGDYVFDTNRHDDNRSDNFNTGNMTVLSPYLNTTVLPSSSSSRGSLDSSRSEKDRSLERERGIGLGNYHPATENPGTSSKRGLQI
UniProt O15169, residues 600-862: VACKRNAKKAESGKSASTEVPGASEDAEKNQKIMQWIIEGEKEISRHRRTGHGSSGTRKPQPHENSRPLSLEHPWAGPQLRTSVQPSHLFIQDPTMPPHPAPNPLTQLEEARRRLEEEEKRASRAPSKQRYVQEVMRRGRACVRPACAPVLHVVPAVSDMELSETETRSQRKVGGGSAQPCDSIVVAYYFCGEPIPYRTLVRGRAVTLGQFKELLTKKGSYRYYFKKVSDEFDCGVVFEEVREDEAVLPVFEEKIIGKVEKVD

The values below come from paper doi:10.1101/2020.09.18.303016.

The target in assay [1] is GST-APC-221-880 (APC arm) (human) (UniProt P25054). Put plainly: pull-down.
Assay [2] has the same target. Put plainly: pull-down. The source holds these as a separate data set.

For the molecule “FLAG-tagged AXIN1-DIX(600-862) (from UniProt O15169-1 600-862) (domain or fragment)”, in assay [1], the binding result was “binds”.

B1: AURKA, in vitro transcription/translation product (HA-AURKA and FLAG-AURKA) (enzyme, UniProt O14965 1-403)
chain: MDRSKENCISGPVKATAPVGGPKRVLVTQQFPCQNPLPVNSGQAQRVLCPSNSSQRIPLQAQKLVSSHKPVQNQKQKQLQATSVPHPVSRPLNNTQKSKQPLPSAPENNPEEELASKQKNEESKKRQWALEDFEIGRPLGKGKFGNVYLAREKQSKFILALKVLFKAQLEKAGVEHQLRREVEIQSHLRHPNILRLYGYFHDATRVYLILEYAPLGTVYRELQKLSKFDEQRTATYITELANALSYCHSKRVIHRDIKPENLLLGSAGELKIADFGWSVHAPSSRRTTLCGTLDYLPPEMIEGRMHDEKVDLWSLGVLCYEFLVGKPPFEANTYQETYKRISRVEFTFPDFVTEGARDLISRLLKHNPSQRPMLREVLEHPWITANSSKPSNCQNKESASKQS
With B1, the binding result in assay [2] is “binds”.
